Measurements from PubChem BioAssay AID540276 (National Center for Advancing Translational Sciences (NCATS), 2011).
Among all 300,000 compounds or so, about 5,400 (1.8%) were called active. This list was built around the results that the source calls inconclusive (neither active nor inactive); the mix of calls is not that of the screen. Calls follow the shape of the full dose curve; tested in HEK293 cells. Potencies beside an inconclusive call are fits to weak or partial responses and may not hold up.

assay: qHTS for inhibitors of binding or entry into cells for Marburg Virus; details: Marburg virus pseudotyped entry inhibition, cell reporter; activity change, negative = inhibition: at 37.8 µM (top of the series) unless noted
% is scaled to controls: 0 for no effect and ±100 for the full control effect; potency is read from the fitted curve at half-maximal effect.

| SMILES | Potency | activity change, negative = inhibition |
| --- | --- | --- |
| COc1cc2c3c(c1)C(C)=CC(C)(C)N3C(=O)C2=O | inconclusive: 5.01 µM [inhibitor, full curve, poor fit] |  |
| Cc1cc(=O)[nH]c(SCCOc2ccc(OC(C)C)cc2)n1 | inactive |  |
| COc1ccc(-c2nc3ccccn3c2CN2CCN(c3ccccc3F)CC2)cc1 | inactive |  |
| C/C(CC(=O)Nc1ccc(C)c(Cl)c1)=N\NC(=O)Cc1cccs1 | inactive |  |
| CCOC(=O)c1c(NC(=O)c2cc(=O)c3cc(C)cc(C)c3o2)sc(C)c1C | inactive |  |
| CCOc1nc(SCCOc2ccccc2)nc(N(C)C)n1 | inconclusive: 11.2 µM [inhibitor, single point] |  |
| Cc1ccc(-n2ncc3c(N4CCN(c5ccccc5)CC4)ncnc32)c(C)c1 | inactive |  |
| COc1ccccc1CC(=O)O/N=C(\N)c1cccc([N+](=O)[O-])c1 | inconclusive: 35.5 µM [inhibitor, single point] |  |
| Cc1ccccc1-c1cc(-c2ccccc2O)n[nH]1 | inactive |  |
| CC(C)OCCCNCC(O)c1ccccc1 (stereo unspecified) | inconclusive: 1.26 µM [inhibitor, partial curve, poor fit] |  |
| Cc1ccc(CSc2nnc(-c3ccco3)o2)cc1 |  | inconclusive: 2.07% [activator] |
| COC(=O)c1ccc(NC(=O)CSc2nnc3c4ccccc4n(C(C)C)c3n2)cc1 | inactive |  |
| CN1CCN(Cc2nc3c(c(=O)n(C)c(=O)n3C)n2Cc2ccccc2Cl)CC1 | inactive |  |
| COc1cc2[nH]c(=S)nc(NC3CCCCCC3)c2cc1OC | inconclusive: 3.16 µM [inhibitor, single point] |  |
| COc1ccc(C2C=C(c3ccc(Cl)cc3)Nc3nc(-c4ccc(Cl)cc4)nn32)cc1 (stereo unspecified) | inconclusive: 35.5 µM [inhibitor, single point] |  |
| COc1cc2c(cc1OC)C(c1cccs1)N(C(=O)c1cccc(S(=O)(=O)N(C)C)c1)CC2 (stereo unspecified) | inactive |  |
| O=C(/C=C/c1ccc([N+](=O)[O-])cc1)NCc1ccco1 | inconclusive: 12.6 µM [activator, single point] |  |
| COCC(C)NS(=O)(=O)c1ccccc1 (stereo unspecified) | inconclusive: 2.82 µM [activator, full curve, poor fit] |  |
| COc1ccc(/C=N/NC(=O)OC(C)(C)C)cc1OC | inactive |  |
| CCOc1c(Br)cc(C2CC(=O)Nc3cc4c(cc32)OCO4)cc1OC (stereo unspecified) | inconclusive: 4.47 µM [inhibitor, partial curve, poor fit] |  |
| COc1ccc(CCNC(=O)c2cccc(Nc3nc4ccccc4nc3-n3nc(C)cc3C)c2)cc1OC | inconclusive: 7.08 µM [inhibitor, full curve, poor fit] |  |
| CCN(CC)CCCN1C(=O)C(=O)/C(=C(/O)c2ccc3c(c2)OCCO3)C1c1ccco1 (stereo unspecified) | inconclusive: 29.1 µM [activator, single point] |  |
| OCC1O[C@H]([S-])[C@H](O)[C@@H](O)[C@@H]1O.[Au+] (stereo partly specified) | inconclusive: 14.6 µM [inhibitor, partial curve] |  |
| Cc1ccccc1Nc1n[nH]c(C)c1[N+](=O)[O-] | inconclusive: 18.4 µM [activator, single point] |  |

| SMILES | Potency | activity change, negative = inhibition |
| --- | --- | --- |
| CCN1CCOC(CC(=O)Nc2ccc([N+](=O)[O-])cc2)C1=O (stereo unspecified) | inactive |  |
| CCC(C(=O)NCCCc1ccccc1)n1nc(C)c2c(C)n(-c3ccccc3)nc2c1=O (stereo unspecified) | inconclusive: 8.91 µM [inhibitor, partial curve] |  |
| OC1=C(O)c2nc3cc(C(F)(F)F)ccc3nc21 | inactive |  |
| CCOC(=O)C1(Cc2cccc(OC)c2)CCN(Cc2cccc(OC)c2OC)CC1 | inconclusive: 7.08 µM [inhibitor, full curve, poor fit] |  |
| O=C(CCN1C(=O)/C(=C\c2cccs2)SC1=S)Nc1ccccn1 | inactive |  |
| COc1ccc(C(=O)c2nccc3ccccc23)cc1 | inconclusive: 11.2 µM [activator, single point] |  |
| CC(O)CNc1nc2c(c(=O)n(C)c(=O)n2C)n1Cc1cccc(C(F)(F)F)c1 (stereo unspecified) | inconclusive: 23.1 µM [inhibitor, single point] |  |
| COC(=O)c1ccc(NC(=O)CCCC(=O)OCC(=O)c2ccc(Cl)cc2)cc1 | inactive |  |
| COc1ccc(C(=O)OC2CCN(C)CC2)cc1 | inconclusive: 5.62 µM [activator, partial curve] |  |
| COCCN(Cc1ccco1)C(=O)c1cc2c(=O)[nH]c3ccc(C)cc3c2s1 | inconclusive: 35.5 µM [inhibitor, single point] |  |
| O=S(=O)(NCc1cccnc1)c1ccc2ccccc2c1 | inactive |  |
| COc1ccc(C(=O)N2N=C(c3cccc(NS(C)(=O)=O)c3)CC2c2cccs2)cc1 (stereo unspecified) | inactive |  |
| COCCOC(=O)C1=C(C)NC(C)=C(C(=O)OCCOC)C1/C=C/c1ccccc1OC | inactive |  |
| CC(C)N1CN=C(Nc2nc3ccccc3o2)NC1 | inconclusive: 35.5 µM [activator, single point] |  |
| O=C(COc1coc(CN2CCc3ccccc3C2)cc1=O)Nc1ccc(F)cc1F | inconclusive: 35.5 µM [inhibitor, partial curve, poor fit] |  |
| COc1ccc2c(-c3ccccc3)cc(N3CCOCC3)nc2c1 | inconclusive: 20 µM [inhibitor, partial curve, poor fit] |  |
| Cc1ccc2nc(-c3ccncc3)cc(-c3ccccc3)c2c1 | active: 13 µM |  |
| O=C(Nc1cccc(Cl)c1N1CCCC1)c1ccc(Br)o1 | inactive |  |
| COc1cccc(Cl)c1NC(=O)N1CCN(c2cc(C)nc3ccccc23)CC1 | inconclusive: 11.2 µM [inhibitor, partial curve, poor fit] |  |
| CC(=O)Nc1ccc(NC(=S)NC(=O)c2cc3ccccc3o2)cc1 | inactive |  |
| CCC(=O)c1ccc(OCC(O)CN2CCN(c3cccc(C(F)(F)F)c3)CC2)cc1 (stereo unspecified) | inconclusive: 35.5 µM [inhibitor, single point] |  |
| COCCNc1c(-c2cc3ccc(C)c(C)c3[nH]c2=O)nc2ccccn12 | inconclusive: 35.5 µM [inhibitor, single point] |  |
| CC1C(=O)C(C)C(c2ccc([N+](=O)[O-])cc2)NC1c1ccc([N+](=O)[O-])cc1 (stereo unspecified) | inconclusive: 3.55 µM [inhibitor, single point] |  |
| CC1=C(C(=O)OCc2ccc3c(c2)OCO3)C(c2ccc(F)cc2)NC(=O)N1 (stereo unspecified) | inconclusive: 5.8 µM [inhibitor, full curve, poor fit] |  |

| SMILES | Potency | activity change, negative = inhibition |
| --- | --- | --- |
| CC1(C)Cc2c(sc3nnn(Cc4ccc(Cl)cc4)c(=O)c23)CO1 | inconclusive: 10 µM [inhibitor, single point] |  |
| CC1=N/C(=C\c2ccccc2Cl)C(=O)O1 | inconclusive: 0.562 µM [inhibitor, full curve] |  |
| COc1ccccc1NC(=O)CCc1c(C)nc2c(-c3ccc(F)cc3)c(C)nn2c1C | inconclusive: 22.4 µM [inhibitor, single point] |  |
| O/N=C1/C2C3C(Br)C4C5CC(C1C53)C24 (stereo unspecified) | inconclusive: 6.31 µM [activator, single point] |  |
| Cc1ccc(S(=O)(=O)CC(CN2CCOCC2)N2CCOCC2)cc1 (stereo unspecified) | inconclusive: 35.5 µM [activator, single point] |  |
| O=C(NCCCN1CCCCC1)C1CCN(c2ncnc3c2nc2n3CCCCC2)CC1 | inconclusive: 1.78 µM [inhibitor, partial curve, poor fit] |  |
| CN(C)c1ccc(Nc2nc(N)c3ccccc3n2)cc1 | active: 0.631 µM |  |
| COc1ccc(C2CC(c3ccc(Cl)cc3)Nc3nc(NC(=O)c4ccco4)nn32)cc1 (stereo unspecified) | inconclusive: 35.5 µM [inhibitor, single point] |  |
| Cc1nc(-c2ccc(NC(=O)c3cccs3)cc2)cs1 | inconclusive: 2.51 µM [inhibitor, full curve, poor fit] |  |
| CCNc1nc(OC)nc(N2CCC(Cc3ccccc3)CC2)n1 | inconclusive: 35.5 µM [inhibitor, partial curve, poor fit] |  |
| Cc1ccc(OCC(=O)Nc2ccc3c(c2)nc(CCN2CCC(C)CC2)n3C)cc1 | inconclusive: 3.55 µM [inhibitor, full curve, poor fit] |  |
| O=C(CSc1ccc(-c2cccnc2)nn1)Nc1ccccc1C(F)(F)F | inactive |  |
| Cc1cc(Cl)c(S(=O)(=O)NC2CCCC2)cc1OCC(=O)NC1CCCCC1 | inconclusive: 5.8 µM [inhibitor, partial curve, poor fit] |  |
| CCSc1nsc(NC(=O)Nc2cccc(OC)c2)n1 | active: 11.2 µM |  |
| N#Cc1c(-c2ccncc2)c2c([nH]c1=S)CCCC2 | inconclusive: 5.62 µM [inhibitor, single point] |  |
| COc1ccc(-c2ccc(/C=C(\NC(=O)c3ccccc3)C(=O)N3CCOCC3)o2)cc1 | inconclusive: 11.2 µM [inhibitor, single point] |  |
| Nc1ccc(Oc2cccc(Oc3ccc(N)cc3)c2)cc1 | inconclusive: 2.51 µM [inhibitor, partial curve, poor fit] |  |
| CCOC(=O)c1c(C)[nH]c(C)c1C(=O)CSc1nc2ccccc2[nH]1 | inconclusive: 28.2 µM [inhibitor, single point] |  |
| O=C(CN1c2ccccc2Sc2ccccc21)N/N=C/c1ccccc1 | inconclusive: 2.82 µM [inhibitor, full curve] |  |
| CCCN(C(=O)CCSc1ccc(F)cc1)c1c(N)n(Cc2ccccc2)c(=O)[nH]c1=O | inactive |  |
| CCOC(=O)Cn1c(=O)oc2cc(S(=O)(=O)N3CCN(c4cccc(C)c4)C(C)C3)ccc21 (stereo unspecified) | inactive |  |
| Cc1cccc(OCC(=O)NCC(=O)N/N=C/c2cccnc2)c1 | inactive |  |
| Cc1ccc(CNC(=O)Cc2csc3ccccc23)cc1 | inconclusive: 3.98 µM [activator, single point] |  |

Four neighbouring entries out of the list so far, for reference:

| SMILES | Potency | activity change, negative = inhibition |
| --- | --- | --- |
| Cc1ccc2nc(-c3ccncc3)cc(-c3ccccc3)c2c1 | active: 13 µM |  |
| O=C(Nc1cccc(Cl)c1N1CCCC1)c1ccc(Br)o1 | inactive |  |
| COc1cccc(Cl)c1NC(=O)N1CCN(c2cc(C)nc3ccccc23)CC1 | inconclusive: 11.2 µM [inhibitor, partial curve, poor fit] |  |
| CC(=O)Nc1ccc(NC(=S)NC(=O)c2cc3ccccc3o2)cc1 | inactive |  |
